Laboratory results: PubChem BioAssay AID1259308 (NCATS, 2017)

Aim: 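Candidate targets for better recombinant protein yield in mammalian cells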 (primary screen)
Cell system: human HEK293 embryonic kidney cells stably expressing firefly luciferase (HEK-CMV-Luc2-Hygro)
Reagent: single siRNA against human genes, 0.8 pmol siRNA per well
Time to read-out: 72 h
Measurement: 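Reporter luminescence and viable-cell signal on separate replicate plates, given as percent of non-targeting control and median/MAD z-scores, plus per-cell luciferase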
Reading the numbers: total luciferase, z-score and total luciferase, % of control: higher = more reporter protein produced; luciferase per cell, z-score: higher = more reporter output per viable cell; viable cells, % of control: higher = more viable cells
Call rule: 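An siRNA counts as active if its total luciferase robust z-score exceeds 3; genes with two or more such siRNAs out of three were retested with fresh siRNAs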
Calls: active = raised luciferase; inactive = no rise
This is one part, drawn at random, of about 59,000 reagents. Of all reagents, about 1,510 (2.6%) are marked active. 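Calls use total luciferase alone and ignore viability, so some active siRNAs may act by altering cell number.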 The numbers tell different reagents against one gene apart.

gene knocked down | reagent | total luciferase, z-score | total luciferase, % of control | luciferase per cell, z-score | viable cells, % of control | Call
CA5A | 1 | -1.24 | 57.3 | -0.43 | 71.7 | inactive
CA5A | 2 | -1.91 | 44 | -1.46 | 72.1 | inactive
CA5A | 3 | -0.684 | 68.3 | 0.746 | 62.7 | inactive
CMTM7 | 1 | -0.171 | 78.5 | -0.441 | 98.5 | inactive
CMTM7 | 2 | 0.895 | 99.7 | 1.07 | 84 | inactive
CMTM7 | 3 | 0.278 | 87.4 | -0.226 | 104 | inactive
VDAC1 | 1 | 0.273 | 87.3 | 0.139 | 94.1 | inactive
VDAC1 | 2 | -1.08 | 60.3 | -1.28 | 94.5 | inactive
VDAC1 | 3 | -0.696 | 68 | -1.02 | 99.5 | inactive
SFMBT1 | 1 | 2.45 | 131 | 1.63 | 95 | inactive
SFMBT1 | 2 | -0.414 | 73.6 | -0.865 | 103 | inactive
SFMBT1 | 3 | 0.746 | 96.7 | -0.744 | 131 | inactive
PAEP | 1 | 0.33 | 88.5 | 1.21 | 71.8 | inactive
PAEP | 2 | 1.14 | 104 | 0.541 | 101 | inactive
PAEP | 3 | 0.148 | 84.8 | -0.387 | 105 | inactive
ADAP2 | 1 | 0.0708 | 83.3 | 0.399 | 83.8 | inactive
ADAP2 | 2 | -0.646 | 69 | -0.887 | 97.4 | inactive
ADAP2 | 3 | -0.794 | 66.1 | -0.184 | 77.5 | inactive
NDUFS5 | 1 | 0.387 | 89.6 | 1.03 | 76.4 | inactive
NDUFS5 | 2 | -0.0854 | 80.2 | -0.433 | 100 | inactive
NDUFS5 | 3 | 0.862 | 99 | 0.67 | 92.8 | inactive
TEX35 | 1 | -2.59 | 30.3 | -2.93 | 73.2 | inactive
TEX35 | 2 | 5.7 | 195 | 4.26 | 71 | active
TEX35 | 3 | -1.7 | 48 | -1.1 | 71.7 | inactive
RAD52 | 1 | -1.47 | 52.6 | -1.76 | 93.4 | inactive
RAD52 | 2 | -1.42 | 53.6 | -2.07 | 103 | inactive
RAD52 | 3 | -0.334 | 75.2 | 1.98 | 49.9 | inactive
COG2 | 1 | -1.69 | 48.3 | -1.65 | 83.2 | inactive
COG2 | 2 | 2.4 | 130 | 2.69 | 71.4 | inactive
COG2 | 3 | -1.53 | 51.4 | -1.9 | 94.8 | inactive
WNT2 | 1 | 1.29 | 108 | 0.945 | 93.7 | inactive
WNT2 | 2 | 1.76 | 117 | 2.24 | 72.4 | inactive
WNT2 | 3 | 3.97 | 161 | 2 | 106 | active
ANP32A | 1 | 0.291 | 87.7 | 0.121 | 94.9 | inactive
ANP32A | 2 | -1.05 | 61 | -1.36 | 97.4 | inactive
ANP32A | 3 | 1.26 | 107 | 0.749 | 98.2 | inactive
ELP5 | 1 | -0.304 | 75.8 | -0.728 | 103 | inactive
ELP5 | 2 | 0.61 | 94 | 0.00784 | 105 | inactive
ELP5 | 3 | 0.896 | 99.7 | 0.363 | 101 | inactive
GRM1 | 1 | -0.527 | 71.4 | -0.744 | 97 | inactive
GRM1 | 2 | 1.27 | 107 | 1.06 | 90.7 | inactive
GRM1 | 3 | -0.347 | 75 | -0.735 | 102 | inactive
EFEMP2 | 1 | -1.38 | 54.5 | -1.67 | 94.6 | inactive
EFEMP2 | 2 | -0.881 | 64.4 | -1.1 | 96.1 | inactive
EFEMP2 | 3 | -1.72 | 47.6 | -2.37 | 99.4 | inactive
TOE1 | 1 | 0.374 | 89.3 | 0.413 | 89.5 | inactive
TOE1 | 2 | -0.0741 | 80.4 | -0.362 | 98.8 | inactive
TOE1 | 3 | -0.213 | 77.6 | -0.428 | 97.1 | inactive
C1QTNF2 | 1 | -0.0164 | 81.6 | 0.985 | 70.3 | inactive
C1QTNF2 | 2 | 0.967 | 101 | 0.587 | 96.8 | inactive
C1QTNF2 | 3 | -2.09 | 40.2 | -2.78 | 93.5 | inactive
TMEM201 | 1 | 0.158 | 85 | -0.17 | 99.4 | inactive
TMEM201 | 2 | 2.26 | 127 | 1.95 | 84.9 | inactive
TMEM201 | 3 | 2.75 | 137 | 3.16 | 66.4 | inactive
LINC01085 | 1 | 0.0562 | 83 | 0.591 | 79.4 | inactive
LINC01085 | 2 | -1.69 | 48.3 | -1.51 | 80.3 | inactive
LINC01085 | 3 | 0.412 | 90.1 | 0.0302 | 99.9 | inactive
STPG3 | 1 | -0.0891 | 80.1 | 1.09 | 67.2 | inactive
STPG3 | 2 | 2.91 | 140 | 3.19 | 67.4 | inactive
STPG3 | 3 | -1.45 | 53 | -1.08 | 78.8 | inactive
PGS1 | 1 | 0.0361 | 82.6 | -0.0661 | 93.9 | inactive
PGS1 | 2 | -0.149 | 78.9 | -0.504 | 101 | inactive
PGS1 | 3 | -0.132 | 79.3 | -0.119 | 91.4 | inactive
MAGEB17 | 1 | -0.644 | 69.1 | -0.108 | 79.4 | inactive
MAGEB17 | 2 | 1.5 | 112 | 2.95 | 57.4 | inactive
MAGEB17 | 3 | -0.148 | 78.9 | 0.268 | 82.2 | inactive
EFCAB11 | 1 | -1.92 | 43.8 | -1.59 | 74.3 | inactive
EFCAB11 | 2 | -0.253 | 76.9 | -0.948 | 110 | inactive
EFCAB11 | 3 | -0.39 | 74.1 | 0.00772 | 82.7 | inactive
EEF1A1P33 | 1 | -0.125 | 79.4 | -0.464 | 100 | inactive
EEF1A1P33 | 2 | 0.236 | 86.6 | 1.15 | 71.5 | inactive
EEF1A1P33 | 3 | 0.989 | 102 | 1.77 | 71.1 | inactive
SULT4A1 | 1 | -0.43 | 73.3 | -0.0594 | 83.2 | inactive
SULT4A1 | 2 | -0.945 | 63.1 | -1.12 | 94.7 | inactive
SULT4A1 | 3 | 0.0902 | 83.7 | 0.682 | 78.1 | inactive
